The campaign covered roughly 400,000 compounds. About 13,000 (3.2%) were called active. Inconclusive means that the source gave no clear call. Such entries were picked first, then a sample of the others. The call rests on the fitted dose curve; in most records, active means well fitted cell-killing curve with a large enough effect; inconclusive means small, poorly fitted or top-dose-only effect, or effect the other way; inactive means flat fitted curve, though single readings scatter. A potency beside an inconclusive call is a rough fit, not a confirmed value.
Assay: qHTS assay for MDR1-selective chemotherapeutics: Primary screen using the drug-selected MDR subline cells KB-V1; further: nearly all actives have a fitted effect of over 60% in size
Conditions: KB-V1 MDR cells viability, CellTiter-Glo, 72 h; activity change, negative = cytotoxicity: at 46.1 µM (top of the series)
Procedure, shortened: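 Readout: CellTiter-Glo luminescence, 10 min after addition. Cells: KB-V1 MDR subline, 72 h at 37 degrees C with compound. Analysis: corrected, normalized data fitted to concentration-effect curves.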
On the % scale 0 is the no-effect control and ±100 the full control effect; potency means the concentration at half of the fitted maximal effect.

Compound	Potency	activity change, negative = cytotoxicity
Cc1cc(C)c(OCC(=O)Nc2nc3ccccc3[nH]2)c(C)c1	inactive	–
COc1cc(OC)cc(C(=O)Nc2nnc(Cc3ccc(OC)c(OC)c3)s2)c1	inactive	–
O=C(Nc1ccc(NC(=O)c2ccco2)cc1)c1ccc2c(c1)OCCO2	inactive	–
Cc1nn(-c2ccccc2)c(N2CCCC2)c1/C=N/n1cnc2scc(-c3ccccc3)c2c1=O	inconclusive: 18.4 µM [cytotoxic, partial curve]	–
COc1cc2nc(NCCC(C)C)n3nc(-c4ccccc4)nc3c2cc1OC	inactive	–
Cc1ccc(S(=O)(=O)N2CCN(c3ncnc4sccc34)CC2)cc1C	active: 5.17 µM	–
Cc1ccc(OCC(=O)N(c2ccc(C)cc2)S(=O)(=O)c2ccc(Cl)cc2)cc1	inconclusive: 29.1 µM [cytotoxic, single point]	–
CC(C(=O)N1CCOCC1)c1ccccc1 (stereo not given)	inconclusive: 29.1 µM [cytotoxic, single point]	–
O=C(O)c1ccc(Cl)c(NCc2ccncc2)c1	inconclusive: 18.4 µM [rising, single point]	–
COc1ccc(-c2nc(N)n(S(=O)(=O)c3ccc(C)cc3)n2)cc1	inconclusive: 18.4 µM [cytotoxic, single point]	–
O=c1c2ccccc2c2ccccc2c(=O)n1Nc1ccccc1	inactive	–
CCC(C)(C)n1nnnc1C(c1ccc(F)cc1)N1CCN(C(=O)c2ccco2)CC1 (stereo not given)	inconclusive: 2.59 µM [cytotoxic, partial curve, poor fit]	–
O=C(Nc1ccccc1Cl)N(Cc1nc2ccccc2c(=O)[nH]1)Cc1cccs1	inconclusive: 3.26 µM [cytotoxic, partial curve, poor fit]	–
O=C(CNCc1ccccc1Cl)Nc1ccc2c(c1)OCCO2	inconclusive: 18.4 µM [cytotoxic, single point]	–
CCCn1c2c(c(O)c(C(=O)Nc3ncccc3O)c1=O)CCCC2	inconclusive: 29.1 µM [cytotoxic, single point]	–
O=C(CS(=O)(=O)c1cccc2nsnc12)Nc1ccccc1	–	inconclusive: -25.2%
CCn1c(=O)c2[nH]c(Cl)nc2n(CC)c1=O	inconclusive: 29.1 µM [cytotoxic, single point]	–
CCn1c(C)nc2cc(C(=O)N/N=C(\C)c3ccc(OC)cc3O)ccc21	inconclusive: 6.51 µM [cytotoxic, partial curve]	–
COc1ccc(OC)c(CN2CCN(C(=O)CN3C(=O)NC4(CCCC4)C3=O)CC2)c1	inconclusive: 16.4 µM [rising, partial curve]	–
COc1ccc(OC)c(S(=O)(=O)N2CCCC(C(=O)NCc3ccccn3)C2)c1 (stereo not given)	inactive	–

3 entries from above, arranged by SMILES length, smallest number first.
Compound	Potency	activity change, negative = cytotoxicity
CCn1c(=O)c2[nH]c(Cl)nc2n(CC)c1=O	inconclusive: 29.1 µM [cytotoxic, single point]	–
O=C(CNCc1ccccc1Cl)Nc1ccc2c(c1)OCCO2	inconclusive: 18.4 µM [cytotoxic, single point]	–
COc1ccc(-c2nc(N)n(S(=O)(=O)c3ccc(C)cc3)n2)cc1	inconclusive: 18.4 µM [cytotoxic, single point]	–
